Earlier results in patent US8865910B2 (priority 2010, dated 2014).
Some of these results come from one statement about several compounds together.

Test system: M. tuberculosis H37Rv
Details: BACTEC 12B medium, primary screening; cited from earlier work
For `CCCSc1nnc(-c2ncc([N+](=O)[O-])n2C)s1` [2-(1-Methyl-5-nitro-1H-imidazol-2-yl)-5-(n-propyl)thio-1,3,4-thiadiazole], the MIC is listed as over 6.25 µg/mL. In the case of `O=[N+]([O-])c1ccc(-c2nnc(SCc3ccccc3[N+](=O)[O-])s2)o1` [2-(5-nitro-2-furyl)-5-(2-nitrobenzyl)thio-1,3,4-thiadiazole], the MIC is listed as over 6.25 µg/mL. For `C#CCSc1nnc(-c2ccc([N+](=O)[O-])o2)s1` [2-(5-nitro-2-furyl)-5-(2-propynyl)thio-1,3,4-thiadiazole], the MIC is given as over 6.25 µg/mL. In the case of `O=[N+]([O-])c1cccc(CSc2nnc(-c3ccc([N+](=O)[O-])o3)s2)c1` [2-(5-nitro-2-furyl)-5-(3-nitrobenzyl)thio-1,3,4-thiadiazole], the MIC is given as over 6.25 µg/mL. In the case of `O=[N+]([O-])c1ccc(CSc2nnc(-c3ccc([N+](=O)[O-])o3)s2)cc1` [2-(5-nitro-2furyl)-5-(4-nitrobenzyl)thio-1,3,4-thiadiazole], the MIC is given as over 6.25 µg/mL.
